PubChem BioAssay AID1508597, Cure First, 2020
Aim: 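Knock-downs altering ovarian cancer cell survival with or without PARP inhibitor rucaparib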 (primary screen). Cell system: human ovarian carcinoma lines grown from tumours: OCI-P5x (papillary serous) and OCI-C5x (clear cell). Reagents: siRNA pool against human genes, 1.25 pmol siRNA per well. Duration: 72 h or 96 h, depending on the cell culture. Treatment: rucaparib 20 µM (about IC30) or vehicle, present until read-out. Rucaparib or vehicle: Rucaparib. Cell line: OCI-P5x (serous). Measurement: 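ATP luminescence measured at 72 or 96 h according to the culture, then normalised and expressed as percent viability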. Scale: viability, normalised: higher = more viable cells remaining. Rule for the call: 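Active when normalised viability falls below 80 percent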. Meaning of the calls: active = viability under 80%; inactive = viability 80% or more.
This is a random part of the about 2,100 reagents, under one of the conditions tested. 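Calls flag viability under 80% in either arm, not effects specific to rucaparib; the reference for percent is not stated.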 Not given: the 100% reference.

gene | PubChem SID | technical replicate | viability, normalised (%) | Outcome
CHUK | SID405527744 | 1 | 66.7 | active
CHUK | SID405527744 | 2 | 62.6 | active
CHUK | SID405527744 | 3 | 58.7 | active
LMTK2 | SID405527684 | 1 | 81.7 | inactive
LMTK2 | SID405527684 | 2 | 102 | inactive
LMTK2 | SID405527684 | 3 | 83.6 | inactive
POLG2 | SID405528343 | 1 | 128 | inactive
POLG2 | SID405528343 | 2 | 169 | inactive
POLG2 | SID405528343 | 3 | 131 | inactive
TSPYL5 | SID405526594 | 1 | 65.6 | active
TSPYL5 | SID405526594 | 2 | 45.7 | active
TSPYL5 | SID405526594 | 3 | 66.9 | active
DDX50 | SID405528195 | 1 | 68.4 | active
DDX50 | SID405528195 | 2 | 59.5 | active
DDX50 | SID405528195 | 3 | 62.9 | active
PRKCZ | SID405527935 | 1 | 73.6 | active
PRKCZ | SID405527935 | 2 | 56.6 | active
PRKCZ | SID405527935 | 3 | 78.2 | active

No new results follow: 3 of the entries above.
gene | PubChem SID | technical replicate | viability, normalised (%) | Outcome
POLG2 | SID405528343 | 2 | 169 | inactive
POLG2 | SID405528343 | 3 | 131 | inactive
TSPYL5 | SID405526594 | 1 | 65.6 | active

The results go on:
gene | PubChem SID | technical replicate | viability, normalised (%) | Outcome
STK16 | SID405527824 | 1 | 70.7 | active
STK16 | SID405527824 | 2 | 54.7 | active
STK16 | SID405527824 | 3 | 57.6 | active
CHMP2A | SID405528113 | 1 | 36.8 | active
CHMP2A | SID405528113 | 2 | 39.9 | active
CHMP2A | SID405528113 | 3 | 45.1 | active
SOX15 | SID405527358 | 1 | 44.9 | active
SOX15 | SID405527358 | 2 | 56 | active
SOX15 | SID405527358 | 3 | 69 | active
SSBP1 | SID405528402 | 1 | 124 | inactive
SSBP1 | SID405528402 | 2 | 76.7 | active
SSBP1 | SID405528402 | 3 | 75.9 | active
CDH5 | SID405526460 | 1 | 66 | active
CDH5 | SID405526460 | 2 | 77.6 | active
CDH5 | SID405526460 | 3 | 77.7 | active
LRRK2 | SID405527687 | 1 | 125 | inactive
LRRK2 | SID405527687 | 2 | 105 | inactive
LRRK2 | SID405527687 | 3 | 90.6 | inactive
NSD1 | SID405527095 | 1 | 55.8 | active
NSD1 | SID405527095 | 2 | 52.8 | active
NSD1 | SID405527095 | 3 | 51.8 | active
